Results taken from article PMC7015241.
Results are given in words; binding and its absence hold for the method and conditions named. In cells and extracts the contact can be indirect. Some binding calls cover weakened binding; strength is not graded here. Where a sequence is shown, tags or fusion partners need not be part of it.

Molecular target: T1, HA-tagged full-length myopalladin (MYPN) (not stated (human or mouse cDNA cloned)) (UniProt Q86TC9)
T1 sequence: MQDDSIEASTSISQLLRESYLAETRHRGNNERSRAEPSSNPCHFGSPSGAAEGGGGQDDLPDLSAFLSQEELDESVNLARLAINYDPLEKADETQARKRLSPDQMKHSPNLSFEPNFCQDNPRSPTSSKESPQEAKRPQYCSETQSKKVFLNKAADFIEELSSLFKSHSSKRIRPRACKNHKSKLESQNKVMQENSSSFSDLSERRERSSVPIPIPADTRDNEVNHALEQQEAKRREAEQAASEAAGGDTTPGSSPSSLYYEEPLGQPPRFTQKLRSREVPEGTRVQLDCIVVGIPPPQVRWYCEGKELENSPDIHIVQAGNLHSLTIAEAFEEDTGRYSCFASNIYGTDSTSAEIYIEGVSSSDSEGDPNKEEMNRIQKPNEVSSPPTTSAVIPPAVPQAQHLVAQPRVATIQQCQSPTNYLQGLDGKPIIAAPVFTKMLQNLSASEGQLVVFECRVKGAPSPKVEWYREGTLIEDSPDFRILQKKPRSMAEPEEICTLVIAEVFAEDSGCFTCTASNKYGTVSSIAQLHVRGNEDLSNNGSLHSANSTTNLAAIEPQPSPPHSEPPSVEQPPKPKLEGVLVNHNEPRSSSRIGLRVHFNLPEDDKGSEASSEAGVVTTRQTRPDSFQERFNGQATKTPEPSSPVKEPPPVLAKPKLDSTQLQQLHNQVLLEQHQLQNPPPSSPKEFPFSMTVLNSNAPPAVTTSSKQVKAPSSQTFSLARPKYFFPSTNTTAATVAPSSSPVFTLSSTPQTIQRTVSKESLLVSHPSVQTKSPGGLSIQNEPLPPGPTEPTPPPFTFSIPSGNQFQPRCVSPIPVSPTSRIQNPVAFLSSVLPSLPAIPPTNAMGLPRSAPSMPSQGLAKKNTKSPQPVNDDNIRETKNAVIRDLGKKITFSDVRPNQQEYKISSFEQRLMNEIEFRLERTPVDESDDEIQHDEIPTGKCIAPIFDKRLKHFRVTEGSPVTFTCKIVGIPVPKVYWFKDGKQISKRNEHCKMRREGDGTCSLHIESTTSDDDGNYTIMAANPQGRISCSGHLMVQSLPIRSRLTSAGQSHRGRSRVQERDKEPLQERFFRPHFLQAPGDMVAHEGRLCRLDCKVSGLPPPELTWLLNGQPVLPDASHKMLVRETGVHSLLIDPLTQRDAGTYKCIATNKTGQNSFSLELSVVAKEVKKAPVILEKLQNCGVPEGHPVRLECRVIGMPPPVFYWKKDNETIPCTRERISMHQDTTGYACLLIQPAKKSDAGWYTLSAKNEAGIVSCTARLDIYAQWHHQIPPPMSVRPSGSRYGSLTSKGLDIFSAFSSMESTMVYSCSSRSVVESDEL
Test: co-IP; HEK293 cells transfected with pXJ40-HA-MYPN FL and/or pXJ40-FLAG-MRTF-A; lysate in IP buffer (20 mM Tris-HCl pH 7.5, 150 mM NaCl, 1% Triton X-100) precipitated with HA antibody on Protein G Dynabeads; western blot with FLAG antibody

binding: binds
B1: FLAG-tagged myocardin-related transcription factor A (MRTF-A) (protein, UniProt Q969V6 1-931)
chain: MPPLKSPAAFHEQRRSLERARTEDYLKRKIRSRPERSELVRMHILEETSAEPSLQAKQLKLKRARLADDLNEKIAQRPGPMELVEKNILPVESSLKEAIIVGQVNYPKVADSSSFDEDSSDALSPEQPASHESQGSVPSPLEARVSEPLLSATSASPTQVVSQLPMGRDSREMLFLAEQPPLPPPPLLPPSLTNGTTIPTAKSTPTLIKQSQPKSASEKSQRSKKAKELKPKVKKLKYHQYIPPDQKQDRGAPPMDSSYAKILQQQQLFLQLQILNQQQQQHHNYQAILPAPPKSAGEALGSSGTPPVRSLSTTNSSSSSGAPGPCGLARQNSTSLTGKPGALPANLDDMKVAELKQELKLRSLPVSGTKTELIERLRAYQDQISPVPGAPKAPAATSILHKAGEVVVAFPAARLSTGPALVAAGLAPAEVVVATVASSGVVKFGSTGSTPPVSPTPSERSLLSTGDENSTPGDTFGEMVTSPLTQLTLQASPLQILVKEEGPRAGSCCLSPGGRAELEGRDKDQMLQEKDKQIEALTRMLRQKQQLVERLKLQLEQEKRAQQPAPAPAPLGTPVKQENSFSSCQLSQQPLGPAHPFNPSLAAPATNHIDPCAVAPGPPSVVVKQEALQPEPEPVPAPQLLLGPQGPSLIKGVAPPTLITDSTGTHLVLTVTNKNADSPGLSSGSPQQPSSQPGSPAPAPSAQMDLEHPLQPLFGTPTSLLKKEPPGYEEAMSQQPKQQENGSSSQQMDDLFDILIQSGEISADFKEPPSLPGKEKPSPKTVCGSPLAAQPSPSAELPQAAPPPPGSPSLPGRLEDFLESSTGLPLLTSGHDGPEPLSLIDDLHSQMLSSTAILDHPPSPMDTSELHFVPEPSSTMGLDLADGHLDSMDWLELSSGGPVLSLAPLSTTAPSLFSTDFLDGHDLQLHWDSCL
